Test results taken from publication PMC8660915, “Small molecule modulation of the Drosophila Slo channel elucidated by cryo-EM” (Nature Communications, 2021).

Target: the molecule itself
Test: cryo-EM structure; purified Slo (2-3 mg/ml) in 0.003% LMNG, 0.0003% CHS, 20 mM Tris-HCl pH 7.7, 320 mM KCl, 10 mM CaCl2, 10 mM MgCl2; four samples: Ca2+-bound apo, Ca2+-free apo (50 mM EDTA), with verruculogen, with emodepside; homotetramer, C4 symmetry (C2 around emodepside)

B1: Drosophila melanogaster Slowpoke (Slo), isoform J, residues 1-1180 with 13 mutations, C-terminal Rho1D4 tag (natural protein, UniProt Q03720-14 1-1180, looked up)
chain: MASGLIDTNFSSTLANGMSGCDQSTVESLADDPTDSPFDADDCLKVRKYWCFLLSSIFTFLAGLLVVLLWRAFAFVCCRKEPDLGPNDPKQKEQKASRNKQEFEGTFMTEAKDWAGELISGQTTTGRILVVLVFILSIASLIIYFVDASSEEVERCQKWSNNITQQIDLAFNIFFMVYFFIRFIAASDKLWFMLEMYSFVDYFTIPPSFVSIYLDRTWIGLRFLRALRLMTVPDILQYLNVLKTSSSIRLAQLVSIFISVWLTAAGIIHLLENSGDPLDFDNAHRLSYWTCVYFLIVTMSTVGYGDVYCETVLGRTFLVFFLLVGLAIFASCIPEIIDLIGTRAKYGGTLKNEKGRRHIVVCGHITYESVSHFLKDFLHEDREDVDVEVVFLHRKPPDLELEGLFKRHFTTVEFFQGTIMNPIDLQRVKVHEADACLVLANKYCQDPDAEDAANIMRVISIKNYSDDIRVIIQLMQYHNKAYLLNIPSWDWKQGDDVICLAELKLGFIAQSCLAPGFSTMMANLFAMRSFKTSPDMQSWTNDYLRGTGMEMYTETLSPTFIGIPFAQATELCFSKLKLLLLAIEIKGAEEGADSKISINPRGAKIQANTQGFFIAQSADEVKRAWFYCKACHEDIKDETLIKKCKCKNLATFRKGVRAVQMVGRASDITRDREDTNLLNRNVRRPNGTGNGTGGMHHMNNTAAAAAAAAAAGKQVNKVKPTVNVSRQVEGQVISPSQYNRPTSRSSGTGTQNQNGGVSLPAGIADDQSKDFDFEKTEMKYDSTGMFHWSPAKSLEDCILDRNQAAMTVLNGHVVVCLFADPDSPLIGLRNLVMPLRASNFHYHELKHVVIVGSVDYIRREWKMLQNLPKISVLNGSPLSRADLRAVNVNLCDMCCILSAKVPSNDDPTLADKEAILASLNIKAMTFDDTIGVLSQRGPEFDNLSATAGSPIVLQRRGSVYGANVPMITELVNDGNVQFLDQDDDDDPDTELYLTQPFACGTAFAVSVLDSLMSTTYFNQNALTLIRSLITGGATPELELILAEGAGLRGGYSTVESLSNRDRCRVGQISLYDGPLAQFGECGKYGDLFVAALKSYGMLCIGLYRFRDTSSSCDASSKRYVITNPPDDFSLLPTDQVFVLMQFDPGLEYKPPAVRAPAGGRGTNTQGSGVGGGGSNKDDNS
notes: synthetic gene, codon optimised for insect cells; numbers count on: NP_001014658.1 (isoform J); The final model comprises L44-G1145 with several disordered loops missing; also called Drosophila Slo; Dm Slo; source: Trichoplusia ni (T.ni) insect cells, baculovirus, purified (Rho1D4 agarose, SEC on Superose 6 increase, in LMNG/CHS); not shown: Rho1D4 (joined by a GSSG linker), C-terminal, kept
  stoichiometry N: 4
